Results published in US20130210167A1, “IMMUNOASSAY FOR PYRROLIDINOPHENONES” (RANDOX LABORATORIES LIMITED, priority 2012, published 2013).
At least one structure is not confirmed: it was looked up by name or label, or the drawing left a doubt.

Test system: polyclonal antibody raised to Immunogen IV
Assay: Competitive biochip immunoassay of pyrrolidinophenones and potential cross-reactants (Evidence Investigator)
Type: binding, sheep
Conditions: Table 2, further cross-reactivity results; competition with Hapten-A HRP conjugate

For O=C(O)CNC(=O)c1ccccc1O [Salicyluric acid], the “% Cross-reactivity” value was under 1%.
